From patent US20120213786A1 (ONCOMED PHARMACEUTICALS, published 2012)
Results are given in words; binding and its absence hold for the method and conditions named. Some binding calls cover weakened binding; strength is not graded here.

T1: recombinant human Notch1 protein (human, UniProt P46531 1426-1731, limits assumed)
T1 construct: also called antigen
T1 sequence (looked up): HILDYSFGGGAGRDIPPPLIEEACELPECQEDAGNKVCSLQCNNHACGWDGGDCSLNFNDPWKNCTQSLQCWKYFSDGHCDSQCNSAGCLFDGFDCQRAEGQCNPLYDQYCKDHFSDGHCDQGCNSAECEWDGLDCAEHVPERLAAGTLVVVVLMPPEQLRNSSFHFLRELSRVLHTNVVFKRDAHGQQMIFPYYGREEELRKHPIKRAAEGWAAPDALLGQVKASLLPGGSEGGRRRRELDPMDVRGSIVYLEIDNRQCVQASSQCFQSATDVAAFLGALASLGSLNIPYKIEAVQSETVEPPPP


Tests used:
[1] = biological target: T1, recombinant human Notch1 protein; experiment: ELISA of conditioned medium of HEK 293 cells co-transfected with the humanized heavy chain and the murine 52M51 light chain
[2] = biological target: T1, recombinant human Notch1 protein; experiment: ELISA of conditioned medium of HEK293 cells co-transfected with 52M51-H4 and the candidate humanized light chain

binding [1]	binding [2]	Binder
binds		52M51-H4 humanized heavy chain co-expressed with the murine 52M51 light chain (antibody, human IgG2, V domains shown) VH: QVQLVQSGAEVKKPGASVKISCKVSGYTLRGYWIEWVRQAPGKGLEWIGQILPGTGRTNYNEKFKGRVTMTADTSTDTAYMELSSLRSEDTAVYYCARFDGNYGYYAMDYWGQGTTVTVSS VL: QAVVTQESALTTSPGETVTLTCRSSTGAVTTSNYANWVQEKPDHLFTGLIGGTNNRAPGVPARFSGSLIGDKAALTITGAQTEDEAIYFCALWYSNHWVFGGGTKLTVLG
	binds	humanized antibody 52M51H4L3 (antibody, human IgG2, lambda, V domains shown, Heavy chain 52M51-H4 (human IgG2 constant region) with light chain 52M51 L3 (human IgLC1 constant region); also called humanized variant of 52M51; ATCC PTA-9549) VH: QVQLVQSGAEVKKPGASVKISCKVSGYTLRGYWIEWVRQAPGKGLEWIGQILPGTGRTNYNEKFKGRVTMTADTSTDTAYMELSSLRSEDTAVYYCARFDGNYGYYAMDYWGQGTTVTVSS VL: SQAVVTQEPSLTVSPGGTVTLTCRSSTGAVTTSNYANWFQQKPGQAPRTLIGGTNNRAPGVPARFSGSLLGGKAALTLSGAQPEDEAEYYCALWYSNHWVFGGGTKLTVLG
	binds	humanized antibody 52M51H4L4 (antibody, human IgG2, lambda, V domains shown, Heavy chain 52M51-H4 (human IgG2 constant region) with light chain 52M51 L4 (human IgLC1 constant region)) VH: QVQLVQSGAEVKKPGASVKISCKVSGYTLRGYWIEWVRQAPGKGLEWIGQILPGTGRTNYNEKFKGRVTMTADTSTDTAYMELSSLRSEDTAVYYCARFDGNYGYYAMDYWGQGTTVTVSS VL: SQTVVTQEPSFSVSPGGTVTLTCRSSTGAVTTSNYANWYQQTPGQAPRTLIGGTNNRAPGVPDRFSGSILGNKAALTITGAQADDESDYYCALWYSNHWVFGGGTKLTVLG
